For this experiment, the target named is p62 (human (endogenous in HEC-1A and KLE)) (UniProt Q13501). Put plainly: co-IP; lysates of HEC-1A and KLE cells incubated with antibodies specific for HK2, HMGCS1 and P62, agarose beads, western blot; in KLE cells also after 10 uM 3-BrPA (HK2 inhibitor) for 24 h. (Immunoblotting shows a protein as a band on a membrane.)

No constants are given. Whether binding was seen depends on the method and setting. Binding seen in cells or lysates may run through a third protein. Some binding calls cover weakened binding; strength is not graded here.

Our source for the binding values is article PMC11914573.

B1: HK2 (enzyme, UniProt P52789 1-917)
chain: MIASHLLAYFFTELNHDQVQKVDQYLYHMRLSDETLLEISKRFRKEMEKGLGATTHPTAAVKMLPTFVRSTPDGTEHGEFLALDLGGTNFRVLWVKVTDNGLQKVEMENQIYAIPEDIMRGSGTQLFDHIAECLANFMDKLQIKDKKLPLGFTFSFPCHQTKLDESFLVSWTKGFKSSGVEGRDVVALIRKAIQRRGDFDIDIVAVVNDTVGTMMTCGYDDHNCEIGLIVGTGSNACYMEEMRHIDMVEGDEGRMCINMEWGAFGDDGSLNDIRTEFDQEIDMGSLNPGKQLFEKMISGMYMGELVRLILVKMAKEELLFGGKLSPELLNTGRFETKDISDIEGEKDGIRKAREVLMRLGLDPTQEDCVATHRICQIVSTRSASLCAATLAAVLQRIKENKGEERLRSTIGVDGSVYKKHPHFAKRLHKTVRRLVPGCDVRFLRSEDGSGKGAAMVTAVAYRLADQHRARQKTLEHLQLSHDQLLEVKRRMKVEMERGLSKETHASAPVKMLPTYVCATPDGTEKGDFLALDLGGTNFRVLLVRVRNGKWGGVEMHNKIYAIPQEVMHGTGDELFDHIVQCIADFLEYMGMKGVSLPLGFTFSFPCQQNSLDESILLKWTKGFKASGCEGEDVVTLLKEAIHRREEFDLDVVAVVNDTVGTMMTCGFEDPHCEVGLIVGTGSNACYMEEMRNVELVEGEEGRMCVNMEWGAFGDNGCLDDFRTEFDVAVDELSLNPGKQRFEKMISGMYLGEIVRNILIDFTKRGLLFRGRISERLKTRGIFETKFLSQIESDCLALLQVRAILQHLGLESTCDDSIIVKEVCTVVARRAAQLCGAGMAAVVDRIRENRGLDALKVTVGVDGTLYKLHPHFAKVMHETVKDLAPKCDVSFLQSEDGSGKGAALITAVACRIREAGQR
For B1, the binding entry is given as “binds”.

B2: HMGCS1 (enzyme, UniProt Q01581 1-520)
chain: MPGSLPLNAEACWPKDVGIVALEIYFPSQYVDQAELEKYDGVDAGKYTIGLGQAKMGFCTDREDINSLCMTVVQNLMERNNLSYDCIGRLEVGTETIIDKSKSVKTNLMQLFEESGNTDIEGIDTTNACYGGTAAVFNAVNWIESSSWDGRYALVVAGDIAVYATGNARPTGGVGAVALLIGPNAPLIFERGLRGTHMQHAYDFYKPDMLSEYPIVDGKLSIQCYLSALDRCYSVYCKKIHAQWQKEGNDKDFTLNDFGFMIFHSPYCKLVQKSLARMLLNDFLNDQNRDKNSIYSGLEAFGDVKLEDTYFDRDVEKAFMKASSELFSQKTKASLLVSNQNGNMYTSSVYGSLASVLAQYSPQQLAGKRIGVFSYGSGLAATLYSLKVTQDATPGSALDKITASLCDLKSRLDSRTGVAPDVFAENMKLREDTHHLVNYIPQGSIDSLFEGTWYLVRVDEKHRRTYARRPTPNDDTLDEGVGLVHSNIATEHIPSPAKKVPRLPATAAEPEAAVISNGEH
For B2, the binding result is “binds”.
